Results from article PMC11416262.
No constants are given. Whether binding was seen depends on the method and setting.

Target: LplT, lysophospholipid transporter, as a BACTH fusion (E. coli) (UniProt P39196)
Assay: two-hybrid; BACTH (bacterial adenylate cyclase two-hybrid): T18 and T25 fusions coexpressed in E. coli BTH101, spotted on X-Gal LB agar, 48 h at 30 °C; blue colonies and β-galactosidase assays

LplT, lysophospholipid transporter, as a BACTH fusion (from UniProt P39196 1-397)
binding: no binding
